Data as given in PubChem BioAssay AID1224828 (NIAID, 2016).

Aim: 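Knock-downs that increase or decrease LPS-induced p65 nuclear translocation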 (primary screen)
Cells: mouse RAW264.7 G9 macrophage reporter cells (GFP-p65, Tnf promoter-mCherry)
Reagents: siRNA pool against mouse genes, 100 nM
Time to read-out: 2 days siRNA transfection, then 40 min LPS before fixation
Conditions: LPS (Salmonella minnesota R595) at 10 ng/ml
Detection: 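Microscopy ratio of nuclear to perinuclear-ring GFP-p65 signal, scaled to the plate median; gene score is the average of two replicate robust z-scores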
Direction: p65 translocation robust z-score: higher = more nuclear NF-kappaB p65 after LPS than the plate median; nuclear/cytoplasmic p65 ratio: higher = more nuclear NF-kappaB p65
Active means: 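Called active when z exceeds 3.3 or falls under -1.56 (median of Tlr4 controls), giving activity score of at least 50; no calls for control wells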
Meaning of the calls: active = hit (p65 shift raised or lowered); inactive = no clear change
This is an unselected part of about 17,000 reagents tested. 762 of them (4.5%) were called active. 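Active calls include both raised and lowered p65 entry, mostly lowered; wells with fewer than 50 cells lack a z-score.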 Raw values are not corrected between plates.

no.	Gene	p65 translocation robust z-score	nuclear/cytoplasmic p65 ratio, rep 1	nuclear/cytoplasmic p65 ratio, rep 2	low cell count flag	Call
1	Nap1l5 (nucleosome assembly protein 1-like 5)	0.1	1.32	1.6	enough cells to score	inactive
2	Polr3h (polymerase (RNA) III (DNA directed) polypeptide H)		1.28	1.03	fewer than 50 cells per well; well left out of scoring	inactive
3	Rab43 (RAB43, member RAS oncogene family)		1.39	1.09	fewer than 50 cells per well; well left out of scoring	inactive
4	Iqub (IQ motif and ubiquitin domain containing)	0.74	1.22	1.39	enough cells to score	inactive
5	Cip2a	1.1	1.66	1.6	enough cells to score	inactive
6	Arl3 (ADP-ribosylation factor-like 3)	0.01	1.56	1.53	enough cells to score	inactive
7	Uqcr11 (ubiquinol-cytochrome c reductase, complex III subunit XI)	-0.22	1.46	1.49	enough cells to score	inactive
8	Vasn (vasorin)		1.11	1.19	fewer than 50 cells per well; well left out of scoring	inactive
9	Lgals6 (lectin, galactose binding, soluble 6)	-0.02	1.73	1.34	enough cells to score	inactive
10	Lilrb4a	0.37	1.45	1.46	enough cells to score	inactive
11	Gpr141 (G protein-coupled receptor 141)	-0.03	1.5	1.58	enough cells to score	inactive
12	Pramel27 (PRAME like 27)	0.82	1.62	1.43	enough cells to score	inactive
13	Tmem126a (transmembrane protein 126A)	3.5	1.46	1.87	enough cells to score	active
14	Ip6k3 (inositol hexaphosphate kinase 3)	-0.99	1.56	1.24	enough cells to score	inactive
15	Vps36 (vacuolar protein sorting 36)	2.31	1.57	1.67	enough cells to score	inactive
16	Stk39 (serine/threonine kinase 39)	1.32	1.66	1.55	enough cells to score	inactive
17	Gabre (gamma-aminobutyric acid (GABA) A receptor, subunit epsilon)	-0.33	1.37	1.35	enough cells to score	inactive
18	Ctns (cystinosis, nephropathic)	0	1.52	1.34	enough cells to score	inactive
19	Or51b6 (olfactory receptor family 51 subfamily B member 6)	1.58	1.63	1.47	enough cells to score	inactive
20	Egfl6 (EGF-like-domain, multiple 6)	-0.14	1.42	1.38	enough cells to score	inactive
21	Pdlim4 (PDZ and LIM domain 4)	-0.04	1.39	1.46	enough cells to score	inactive
22	Slc9a9		1.32	1.17	fewer than 50 cells per well; well left out of scoring	inactive
23	Triap1 (TP53 regulated inhibitor of apoptosis 1)		1.22	1.41	fewer than 50 cells per well; well left out of scoring	inactive
24	Col9a2 (collagen, type IX, alpha 2)	1.91	1.62	1.73	enough cells to score	inactive

An excerpt of the results above, as a working copy:
no.	Gene	p65 translocation robust z-score	nuclear/cytoplasmic p65 ratio, rep 1	nuclear/cytoplasmic p65 ratio, rep 2	low cell count flag	Call
4	Iqub (IQ motif and ubiquitin domain containing)	0.74	1.22	1.39	enough cells to score	inactive
5	Cip2a	1.1	1.66	1.6	enough cells to score	inactive
